These results are taken from article PMC12544700, “Identification of a Small Secretoneurin Derivative That Inhibits CaMKIIδ Activity” (Journal of Cellular and Molecular Medicine, 2025).

B1: CN21 peptide (peptide)
peptide: KRPPKLGQIGRSKRVVIEDDR
B2: CN27 peptide (peptide)
peptide: KRPPKLGQIGRAKRVVIEDDRIDDVLK
B3: biotinylated secretoneurin (SN), SN (1–33) (peptide)
peptide: TNEIVEEQYTPQSLATLESVFQELGKLTGPNNQ
modifications: biotin-ahx on the N-terminus
B4: biotinylated SN (14–33) (peptide)
peptide: LATLESVFQELGKLTGPNNQ
modifications: biotin-ahx on the N-terminus
B5: biotinylated SN (1–20) (peptide)
peptide: TNEIVEEQYTPQSLATLESV
modifications: biotin-ahx on the N-terminus
B6: biotinylated SN (7–26) (peptide)
peptide: EQYTPQSLATLESVFQELGK
modifications: biotin-ahx on the N-terminus

No constants are given. Whether binding was seen depends on the method and setting. Some entries that bind do so weakly or less than the wild type.

The target in the first test is recombinant rat His‐CaMKIIδ‐T287D full‐length protein (rat) (UniProt P15791). Put plainly: ELISA; competition: rat CaMKIIδ‐T287D coated; 5 μL (1 mM) biotinylated SN‐db‐short together with 20 μL (1 mM) untagged competitor peptide in the same well; both purified. On the technique in general: In an ELISA, binding on a coated surface is turned into a signal by an enzyme label.
Take B1: the binding result was “binds”. Still for that read-out and setting: the entry for B2 is “binds”.

A further test addresses recombinant His‐CaMKIIδ‐T287D (species not named for the experiment) (not stated (rat or human protein made)) (UniProt P15791). Kind of test: ELISA; His‐CaMKIIδ‐T287D or CaMKIIδ fragment coated, 1 μg/well in PBS overnight at 4°C; blocked with gelatin or BSA; 5 μL of 1 mM biotinylated peptide, 2 h at 37°C; anti‐biotin‐HRP, read at 450 nm; both purified.
With B3, the binding result is “binds”. Take B4: the binding result is recorded as “binds”. Same read-out and setting: the same measure for B5: “binds”. With B6, the binding entry is recorded as “binds”.
